According to the supplement of paper PMC12819154, “High-throughput peptide-centric local stability assay extends protein–ligand identification to membrane proteins, tissues and bacteria” (Nature Structural & Molecular Biology, 2025):
This is one part of the list. Small differences around the control level are noise.

Chains of the proteins cited; added tags and fusions are not shown. Lines headed by an entry give the natural chain unless they say otherwise; changes in a name come on top.
UniProt P46978: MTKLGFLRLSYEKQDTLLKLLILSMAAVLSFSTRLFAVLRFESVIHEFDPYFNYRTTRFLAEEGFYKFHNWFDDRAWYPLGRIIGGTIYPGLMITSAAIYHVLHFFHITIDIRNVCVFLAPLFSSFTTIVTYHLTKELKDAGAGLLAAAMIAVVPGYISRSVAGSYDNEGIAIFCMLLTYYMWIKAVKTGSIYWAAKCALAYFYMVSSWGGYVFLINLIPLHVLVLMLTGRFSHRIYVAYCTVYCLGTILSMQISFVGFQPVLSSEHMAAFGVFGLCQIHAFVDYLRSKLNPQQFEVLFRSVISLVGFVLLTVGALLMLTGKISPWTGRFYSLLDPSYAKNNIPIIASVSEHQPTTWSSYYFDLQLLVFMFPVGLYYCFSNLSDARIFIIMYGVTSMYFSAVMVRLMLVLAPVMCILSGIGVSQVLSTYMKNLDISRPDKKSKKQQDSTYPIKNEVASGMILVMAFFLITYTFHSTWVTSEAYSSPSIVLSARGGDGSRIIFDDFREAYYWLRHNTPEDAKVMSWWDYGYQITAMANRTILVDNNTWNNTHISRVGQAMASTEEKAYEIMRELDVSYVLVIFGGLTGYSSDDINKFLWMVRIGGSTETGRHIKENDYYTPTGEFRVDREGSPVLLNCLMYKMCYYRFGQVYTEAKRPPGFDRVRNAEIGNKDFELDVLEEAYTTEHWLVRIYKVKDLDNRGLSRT
UniProt P48678: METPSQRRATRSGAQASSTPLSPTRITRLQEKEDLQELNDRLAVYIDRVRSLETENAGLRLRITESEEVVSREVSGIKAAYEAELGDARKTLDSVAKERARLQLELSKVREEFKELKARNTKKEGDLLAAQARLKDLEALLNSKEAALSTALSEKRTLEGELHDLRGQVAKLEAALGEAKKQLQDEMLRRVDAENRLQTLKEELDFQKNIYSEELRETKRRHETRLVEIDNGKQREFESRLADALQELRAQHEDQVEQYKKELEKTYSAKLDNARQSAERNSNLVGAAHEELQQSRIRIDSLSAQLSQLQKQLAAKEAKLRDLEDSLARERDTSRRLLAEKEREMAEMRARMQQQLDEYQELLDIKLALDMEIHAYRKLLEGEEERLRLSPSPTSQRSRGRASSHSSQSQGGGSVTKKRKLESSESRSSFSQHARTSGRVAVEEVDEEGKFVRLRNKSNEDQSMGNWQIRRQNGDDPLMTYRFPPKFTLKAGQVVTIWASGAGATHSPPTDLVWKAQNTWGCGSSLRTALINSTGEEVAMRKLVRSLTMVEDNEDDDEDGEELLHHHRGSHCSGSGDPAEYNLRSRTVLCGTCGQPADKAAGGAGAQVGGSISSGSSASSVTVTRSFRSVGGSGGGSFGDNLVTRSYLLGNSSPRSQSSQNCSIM
UniProt P31650: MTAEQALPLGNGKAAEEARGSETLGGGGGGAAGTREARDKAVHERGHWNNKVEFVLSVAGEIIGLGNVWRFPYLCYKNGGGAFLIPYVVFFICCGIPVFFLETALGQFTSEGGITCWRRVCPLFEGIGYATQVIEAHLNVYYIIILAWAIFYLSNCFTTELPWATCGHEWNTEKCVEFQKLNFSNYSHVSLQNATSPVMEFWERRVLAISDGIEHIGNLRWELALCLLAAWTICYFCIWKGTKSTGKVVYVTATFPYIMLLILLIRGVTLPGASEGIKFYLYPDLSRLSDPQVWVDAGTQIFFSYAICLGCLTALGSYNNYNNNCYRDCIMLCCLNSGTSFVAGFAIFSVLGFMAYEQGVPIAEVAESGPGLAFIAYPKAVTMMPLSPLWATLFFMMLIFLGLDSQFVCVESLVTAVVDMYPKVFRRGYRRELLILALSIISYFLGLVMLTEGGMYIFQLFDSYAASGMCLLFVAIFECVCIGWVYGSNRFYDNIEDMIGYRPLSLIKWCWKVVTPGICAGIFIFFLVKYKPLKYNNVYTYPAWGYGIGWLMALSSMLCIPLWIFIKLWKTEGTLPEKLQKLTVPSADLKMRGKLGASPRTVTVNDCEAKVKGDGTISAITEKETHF
UniProt P49442: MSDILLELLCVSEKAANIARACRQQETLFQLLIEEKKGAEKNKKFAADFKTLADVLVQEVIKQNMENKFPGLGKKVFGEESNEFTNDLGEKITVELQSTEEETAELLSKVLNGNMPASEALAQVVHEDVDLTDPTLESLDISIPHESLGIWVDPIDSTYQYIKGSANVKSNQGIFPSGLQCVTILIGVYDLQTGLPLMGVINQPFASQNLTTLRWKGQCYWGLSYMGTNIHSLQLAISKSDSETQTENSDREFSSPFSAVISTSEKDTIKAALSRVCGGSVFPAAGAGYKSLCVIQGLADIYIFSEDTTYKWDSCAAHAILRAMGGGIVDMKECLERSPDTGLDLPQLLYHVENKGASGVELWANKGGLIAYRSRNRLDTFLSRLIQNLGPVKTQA
UniProt P48771: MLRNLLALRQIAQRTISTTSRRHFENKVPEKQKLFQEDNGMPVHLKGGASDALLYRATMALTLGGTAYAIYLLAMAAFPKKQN
UniProt P50580: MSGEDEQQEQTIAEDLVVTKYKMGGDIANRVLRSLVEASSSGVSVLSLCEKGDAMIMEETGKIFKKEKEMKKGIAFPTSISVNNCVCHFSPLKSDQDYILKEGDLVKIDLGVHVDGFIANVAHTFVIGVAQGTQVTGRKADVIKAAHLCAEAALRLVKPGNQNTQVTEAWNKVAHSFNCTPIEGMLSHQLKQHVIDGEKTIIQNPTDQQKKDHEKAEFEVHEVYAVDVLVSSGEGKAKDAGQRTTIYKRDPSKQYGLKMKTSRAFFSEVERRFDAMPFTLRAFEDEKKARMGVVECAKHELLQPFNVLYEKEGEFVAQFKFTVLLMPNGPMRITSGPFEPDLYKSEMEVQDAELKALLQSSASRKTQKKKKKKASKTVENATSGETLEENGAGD
UniProt P49710: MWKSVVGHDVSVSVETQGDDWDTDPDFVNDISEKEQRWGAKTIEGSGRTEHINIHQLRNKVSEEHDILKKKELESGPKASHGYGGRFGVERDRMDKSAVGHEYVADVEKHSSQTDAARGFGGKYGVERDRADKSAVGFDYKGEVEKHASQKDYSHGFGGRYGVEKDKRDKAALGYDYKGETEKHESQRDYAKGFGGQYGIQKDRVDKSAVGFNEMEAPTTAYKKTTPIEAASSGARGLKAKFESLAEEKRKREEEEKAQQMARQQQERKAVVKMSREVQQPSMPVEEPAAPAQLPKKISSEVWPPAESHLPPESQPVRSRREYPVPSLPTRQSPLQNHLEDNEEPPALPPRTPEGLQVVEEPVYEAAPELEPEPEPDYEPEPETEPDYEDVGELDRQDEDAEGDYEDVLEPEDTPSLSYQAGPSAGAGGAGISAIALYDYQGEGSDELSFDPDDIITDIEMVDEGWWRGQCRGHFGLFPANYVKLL
UniProt P51880: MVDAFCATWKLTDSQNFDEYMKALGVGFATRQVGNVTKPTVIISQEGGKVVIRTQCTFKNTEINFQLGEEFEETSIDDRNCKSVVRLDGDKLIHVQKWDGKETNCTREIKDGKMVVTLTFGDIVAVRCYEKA
UniProt P52760: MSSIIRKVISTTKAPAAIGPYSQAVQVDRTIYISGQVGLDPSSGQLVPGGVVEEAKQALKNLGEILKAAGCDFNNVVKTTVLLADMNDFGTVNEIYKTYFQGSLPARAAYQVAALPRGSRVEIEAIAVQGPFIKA
UniProt P35282: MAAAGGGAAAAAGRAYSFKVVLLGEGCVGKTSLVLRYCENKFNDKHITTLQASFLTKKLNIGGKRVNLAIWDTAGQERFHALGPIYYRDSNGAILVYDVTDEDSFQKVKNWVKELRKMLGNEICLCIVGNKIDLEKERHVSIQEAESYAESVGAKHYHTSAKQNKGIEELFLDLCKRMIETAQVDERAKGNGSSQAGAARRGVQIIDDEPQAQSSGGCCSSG
UniProt P46467: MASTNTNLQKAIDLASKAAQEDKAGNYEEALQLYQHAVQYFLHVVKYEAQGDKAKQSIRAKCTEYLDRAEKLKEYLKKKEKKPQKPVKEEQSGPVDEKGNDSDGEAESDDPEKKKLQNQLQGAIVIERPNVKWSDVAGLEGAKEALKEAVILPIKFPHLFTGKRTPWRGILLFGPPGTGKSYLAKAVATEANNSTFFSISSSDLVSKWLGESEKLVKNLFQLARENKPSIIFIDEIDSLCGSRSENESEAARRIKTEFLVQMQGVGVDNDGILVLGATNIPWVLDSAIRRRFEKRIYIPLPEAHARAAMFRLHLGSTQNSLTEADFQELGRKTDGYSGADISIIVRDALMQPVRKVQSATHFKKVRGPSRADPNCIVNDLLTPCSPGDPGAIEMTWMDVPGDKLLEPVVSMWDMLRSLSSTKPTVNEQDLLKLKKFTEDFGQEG
UniProt P50462: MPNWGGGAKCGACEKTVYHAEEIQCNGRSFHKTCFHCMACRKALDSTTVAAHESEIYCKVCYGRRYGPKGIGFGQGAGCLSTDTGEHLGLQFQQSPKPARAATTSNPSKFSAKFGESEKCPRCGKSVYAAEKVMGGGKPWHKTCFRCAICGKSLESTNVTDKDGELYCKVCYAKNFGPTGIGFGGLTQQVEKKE
UniProt P36552: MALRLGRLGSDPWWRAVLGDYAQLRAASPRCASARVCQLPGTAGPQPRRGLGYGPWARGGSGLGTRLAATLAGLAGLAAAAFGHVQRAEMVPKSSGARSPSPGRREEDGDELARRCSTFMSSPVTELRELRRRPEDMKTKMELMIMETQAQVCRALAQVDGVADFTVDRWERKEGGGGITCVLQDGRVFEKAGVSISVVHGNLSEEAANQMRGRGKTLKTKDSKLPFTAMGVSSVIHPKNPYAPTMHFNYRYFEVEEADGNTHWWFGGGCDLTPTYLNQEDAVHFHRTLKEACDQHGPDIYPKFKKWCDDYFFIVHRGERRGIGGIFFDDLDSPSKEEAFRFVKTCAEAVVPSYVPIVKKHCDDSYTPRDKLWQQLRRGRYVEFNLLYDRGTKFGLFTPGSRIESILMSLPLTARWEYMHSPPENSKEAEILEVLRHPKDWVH
UniProt P54823: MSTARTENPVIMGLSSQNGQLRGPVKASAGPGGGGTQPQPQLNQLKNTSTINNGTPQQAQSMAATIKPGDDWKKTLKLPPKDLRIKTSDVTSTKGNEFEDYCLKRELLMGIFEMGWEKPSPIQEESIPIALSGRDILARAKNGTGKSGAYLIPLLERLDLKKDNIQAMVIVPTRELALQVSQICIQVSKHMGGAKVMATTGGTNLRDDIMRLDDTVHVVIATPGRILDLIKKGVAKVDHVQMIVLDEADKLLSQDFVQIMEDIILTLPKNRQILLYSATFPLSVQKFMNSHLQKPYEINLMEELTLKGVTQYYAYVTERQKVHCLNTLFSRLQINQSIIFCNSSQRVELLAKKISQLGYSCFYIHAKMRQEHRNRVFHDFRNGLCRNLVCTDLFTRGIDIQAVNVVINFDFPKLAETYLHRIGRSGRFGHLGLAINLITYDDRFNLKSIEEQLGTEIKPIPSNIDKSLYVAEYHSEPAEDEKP
UniProt P39054: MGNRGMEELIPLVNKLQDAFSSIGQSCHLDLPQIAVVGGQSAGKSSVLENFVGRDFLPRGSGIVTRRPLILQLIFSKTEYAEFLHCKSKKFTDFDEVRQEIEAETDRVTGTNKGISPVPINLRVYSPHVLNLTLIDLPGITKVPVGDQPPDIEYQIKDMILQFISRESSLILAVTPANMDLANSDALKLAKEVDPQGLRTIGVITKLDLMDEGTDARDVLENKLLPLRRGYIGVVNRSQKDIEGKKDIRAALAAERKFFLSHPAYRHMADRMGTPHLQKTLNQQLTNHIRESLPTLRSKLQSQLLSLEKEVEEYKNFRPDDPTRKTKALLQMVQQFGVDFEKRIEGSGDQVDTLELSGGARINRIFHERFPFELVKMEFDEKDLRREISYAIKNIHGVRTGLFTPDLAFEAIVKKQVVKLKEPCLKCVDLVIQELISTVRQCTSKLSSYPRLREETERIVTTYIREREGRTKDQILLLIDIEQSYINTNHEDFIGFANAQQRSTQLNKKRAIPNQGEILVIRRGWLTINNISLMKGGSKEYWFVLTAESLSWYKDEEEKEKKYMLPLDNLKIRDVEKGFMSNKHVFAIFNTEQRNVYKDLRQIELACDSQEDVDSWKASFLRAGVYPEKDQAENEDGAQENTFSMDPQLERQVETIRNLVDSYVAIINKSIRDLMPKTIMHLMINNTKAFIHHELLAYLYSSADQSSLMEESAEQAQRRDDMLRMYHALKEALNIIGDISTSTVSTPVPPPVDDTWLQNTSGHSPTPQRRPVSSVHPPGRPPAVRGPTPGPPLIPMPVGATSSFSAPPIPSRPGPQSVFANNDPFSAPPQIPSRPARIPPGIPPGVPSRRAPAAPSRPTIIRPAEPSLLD
UniProt P47802: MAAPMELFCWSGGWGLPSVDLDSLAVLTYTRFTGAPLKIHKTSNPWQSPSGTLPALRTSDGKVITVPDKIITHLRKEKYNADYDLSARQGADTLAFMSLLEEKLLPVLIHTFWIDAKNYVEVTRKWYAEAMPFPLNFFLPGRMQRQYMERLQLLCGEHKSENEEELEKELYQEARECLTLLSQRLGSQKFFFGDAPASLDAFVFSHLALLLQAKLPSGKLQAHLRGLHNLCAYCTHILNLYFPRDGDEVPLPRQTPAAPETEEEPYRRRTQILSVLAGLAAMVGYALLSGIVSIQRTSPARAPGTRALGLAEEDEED

What follows are targets tested with CN[C@@H]1C[C@H]2O[C@@](C)([C@@H]1OC)n1c3ccccc3c3c4c(c5c6ccccc6n2c5c31)C(=O)NC4 [staurosporine] (assay: log2 fold change of pooled soluble protein (PISA), ligand vs vehicle (log2 ratio); higher = more thermally stabilized). Details: ligand concentration: 20 uM; assay format: PISA pool 52.9/55.5/58.6 C.

Target | log2 fold change of pooled soluble protein
UniProt P46978 | 0.00805
UniProt P32067 | 0.0154
UniProt P48678 | 0.0049
UniProt P31650 | 0.0213
UniProt P51881 | 0.0259
UniProt P49442 | 0.363
UniProt P40630 | -0.101
UniProt P55302 | -0.00452
UniProt P48771 | 0.215
UniProt P50580 | 0.00326
UniProt P49710 | -0.0772
UniProt P51880 | -0.141
UniProt P53808 | -0.0122
UniProt P52760 | -0.0105
UniProt P30416 | -0.00268
UniProt P35282 | -0.152
UniProt P30681 | 0.104
UniProt P46467 | 0.0243
UniProt P50462 | 0.011

Two entries from above, in CSV form.
Target,log2 fold change of pooled soluble protein
UniProt P46978,0.00805
UniProt P50462,0.011

More results follow.

Target | log2 fold change of pooled soluble protein
UniProt P36552 | 0.366
UniProt P51437 | -0.218
UniProt P52843 | -0.338
UniProt P54823 | 0.295
UniProt P42669 | 0.0409
UniProt P31649 | 0.0574
UniProt P47877 | 0.0373
UniProt P39054 | -0.398
UniProt P35285 | -0.282
UniProt P49282 | 0.276
UniProt P47802 | 0.191
UniProt P43406 | -0.0499
UniProt P39061 | 0.154
UniProt P47915 | -0.242
UniProt P31996 | -0.0851
UniProt P54276 | 0.299
UniProt P56376 | 0.0327
UniProt P35235 | 0.0926
